In the experiment the target is cynomolgus monkey GPRC5D (cynomolgus monkey). The experiment is described as follows: flow cytometry on cynomolgus monkey GPRC5D-CHOK1 cells.

Consider 1 molecule from EP4714974A1.

These are yes or no findings as the source states them, for the method shown. Binding can be weak; no strength is given.

B1: 18CH-16 (chimeric mouse hybridoma-derived anti-GPRC5D antibody) (antibody, V domains shown)
VH: EVQLQQSGPELVKPGASVKMSCKASGYTFTSYIIHWVKQKPGQGLEWIGYINPYNDGTKYNEKFKGKATLTSDRSSSTAYMEVSSLTSEDSAVYYCARGGIRAFMNYWGQGTSVTVSS
VL: DIVMTQSHKFMSTSVGDRVSITCKASQDVGTAVAWYQQKPGQSPKLLIYWASTRHTGVPDRFTGSGSGTDFTLSISNVQSEDLADYFCQHYISWTFGGGTNLEIK
B1: the binding entry was “binds”.
